{"source": "patent US20250009917A1", "about": "“MACROCYCLE CONTAINING COMPOUNDS AND RADIOLABELLED COMPLEXES THEREOF, AS LIGANDS IN TARGETED RADIOTHERAPY APPLICATIONS” (THE UNIVERSITY OF MELBOURNE, priority 2021, published 2025)", "key": {"[1]": {"experiment": "Ac-225 labelling concentration study (radiochemical yield by TLC)", "conditions": "for complexation of [^225Ac]Ac: lower chelator concentrations"}, "[2]": {"experiment": "Speed of complexation with Ac-225 comparison study (radiochemical yield over time by TLC)", "conditions": "ambient temperature"}}}
{"molecule": "O=C(O)CN(CCN(CC(=O)O)CC(=O)O)CC(=O)O", "note": "[EDTA, ethylenediaminetetraacetic acid]", "values": [{"measurement": "complexation of [^225Ac]Ac", "setting": "[1]; ambient temperature, 2 hours", "result": "no complexation"}]}
{"molecule": "O=C(O)c1cccc(CN2CCOCCOCCN(Cc3cccc(C(=O)O)n3)CCOCCOCC2)n1", "note": "[Compound H2macropa, N,N′-bis[(6-carboxy-2-pyridil)methyl]-4,13-diaza-18-crown-6]", "values": [{"measurement": "Ac-225 radiolabelling", "setting": "[1]; up to a chelator concentration of 10^−6 M, ambient temperature, 2 hours", "result": "quantitatively"}]}
{"molecule": "CCOc1c(NCCOCCOCCOCCn2cc(COc3cc(CN4CCOCCOCCN(Cc5cccc(C(=O)O)n5)CCOCCOCC4)nc(C(=O)O)c3)nn2)c(=O)c1=O", "note": "[H2macropa-tzPEG3SqOEt]", "values": [{"measurement": "radiochemical yield", "setting": "[2]; 10^−7 M chelator, 5 minutes incubation", "result": "started to drop"}, {"measurement": "radiochemical yield", "setting": "[2]; all concentrations (10^−5, 10^−6, 10^−7 M), 15 minutes", "result": "quantitative yields"}]}
{"molecule": "CC(=O)O.CC(=O)O.CC(=O)O.CC(=O)O.CC(=O)O.NCCNCCN", "note": "[DTPA, Diethylenetriamine pentaacetate]", "values": [{"measurement": "complexation of [^225Ac]Ac", "setting": "[1]; ambient temperature, 2 hours", "result": "no complexation"}]}
{"molecule": "O=C(O)CN1CCN(CC(=O)O)CCN(CC(=O)O)CCN(CC(=O)O)CC1", "note": "[DOTA, 2,2′,2″,2″′-(1,4,7,10-Tetraazacyclododecane-1,4,7,10-tetrayl)tetraacetic acid]", "values": [{"measurement": "Ac-225 radiolabelling yield", "setting": "[1]; heated to 90° C.", "result": "quantitative radiolabelling yields"}, {"measurement": "complexation of [^225Ac]Ac", "setting": "[1]; ambient temperature, 2 hours", "result": "no complexation"}]}
